# Data: the supplement of paper PMC6411743
# Protein sequences, listed by entry. Tags and fused reporters are not part of them. Lines headed by an entry give the natural chain unless they say otherwise; changes in a name come on top.
# UniProt Q07955, whole entry: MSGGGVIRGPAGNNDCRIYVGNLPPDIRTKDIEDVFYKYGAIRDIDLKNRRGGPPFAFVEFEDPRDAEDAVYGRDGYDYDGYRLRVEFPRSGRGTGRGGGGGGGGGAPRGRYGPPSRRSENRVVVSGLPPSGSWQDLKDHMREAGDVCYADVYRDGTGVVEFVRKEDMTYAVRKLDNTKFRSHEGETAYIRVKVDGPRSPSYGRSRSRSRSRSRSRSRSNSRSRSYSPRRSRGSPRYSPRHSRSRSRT
# UniProt Q01469, whole entry: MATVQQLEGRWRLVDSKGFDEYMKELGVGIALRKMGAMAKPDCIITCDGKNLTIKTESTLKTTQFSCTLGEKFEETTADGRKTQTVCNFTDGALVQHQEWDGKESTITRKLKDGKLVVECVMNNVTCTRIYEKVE
# UniProt Q6PIF6, whole entry: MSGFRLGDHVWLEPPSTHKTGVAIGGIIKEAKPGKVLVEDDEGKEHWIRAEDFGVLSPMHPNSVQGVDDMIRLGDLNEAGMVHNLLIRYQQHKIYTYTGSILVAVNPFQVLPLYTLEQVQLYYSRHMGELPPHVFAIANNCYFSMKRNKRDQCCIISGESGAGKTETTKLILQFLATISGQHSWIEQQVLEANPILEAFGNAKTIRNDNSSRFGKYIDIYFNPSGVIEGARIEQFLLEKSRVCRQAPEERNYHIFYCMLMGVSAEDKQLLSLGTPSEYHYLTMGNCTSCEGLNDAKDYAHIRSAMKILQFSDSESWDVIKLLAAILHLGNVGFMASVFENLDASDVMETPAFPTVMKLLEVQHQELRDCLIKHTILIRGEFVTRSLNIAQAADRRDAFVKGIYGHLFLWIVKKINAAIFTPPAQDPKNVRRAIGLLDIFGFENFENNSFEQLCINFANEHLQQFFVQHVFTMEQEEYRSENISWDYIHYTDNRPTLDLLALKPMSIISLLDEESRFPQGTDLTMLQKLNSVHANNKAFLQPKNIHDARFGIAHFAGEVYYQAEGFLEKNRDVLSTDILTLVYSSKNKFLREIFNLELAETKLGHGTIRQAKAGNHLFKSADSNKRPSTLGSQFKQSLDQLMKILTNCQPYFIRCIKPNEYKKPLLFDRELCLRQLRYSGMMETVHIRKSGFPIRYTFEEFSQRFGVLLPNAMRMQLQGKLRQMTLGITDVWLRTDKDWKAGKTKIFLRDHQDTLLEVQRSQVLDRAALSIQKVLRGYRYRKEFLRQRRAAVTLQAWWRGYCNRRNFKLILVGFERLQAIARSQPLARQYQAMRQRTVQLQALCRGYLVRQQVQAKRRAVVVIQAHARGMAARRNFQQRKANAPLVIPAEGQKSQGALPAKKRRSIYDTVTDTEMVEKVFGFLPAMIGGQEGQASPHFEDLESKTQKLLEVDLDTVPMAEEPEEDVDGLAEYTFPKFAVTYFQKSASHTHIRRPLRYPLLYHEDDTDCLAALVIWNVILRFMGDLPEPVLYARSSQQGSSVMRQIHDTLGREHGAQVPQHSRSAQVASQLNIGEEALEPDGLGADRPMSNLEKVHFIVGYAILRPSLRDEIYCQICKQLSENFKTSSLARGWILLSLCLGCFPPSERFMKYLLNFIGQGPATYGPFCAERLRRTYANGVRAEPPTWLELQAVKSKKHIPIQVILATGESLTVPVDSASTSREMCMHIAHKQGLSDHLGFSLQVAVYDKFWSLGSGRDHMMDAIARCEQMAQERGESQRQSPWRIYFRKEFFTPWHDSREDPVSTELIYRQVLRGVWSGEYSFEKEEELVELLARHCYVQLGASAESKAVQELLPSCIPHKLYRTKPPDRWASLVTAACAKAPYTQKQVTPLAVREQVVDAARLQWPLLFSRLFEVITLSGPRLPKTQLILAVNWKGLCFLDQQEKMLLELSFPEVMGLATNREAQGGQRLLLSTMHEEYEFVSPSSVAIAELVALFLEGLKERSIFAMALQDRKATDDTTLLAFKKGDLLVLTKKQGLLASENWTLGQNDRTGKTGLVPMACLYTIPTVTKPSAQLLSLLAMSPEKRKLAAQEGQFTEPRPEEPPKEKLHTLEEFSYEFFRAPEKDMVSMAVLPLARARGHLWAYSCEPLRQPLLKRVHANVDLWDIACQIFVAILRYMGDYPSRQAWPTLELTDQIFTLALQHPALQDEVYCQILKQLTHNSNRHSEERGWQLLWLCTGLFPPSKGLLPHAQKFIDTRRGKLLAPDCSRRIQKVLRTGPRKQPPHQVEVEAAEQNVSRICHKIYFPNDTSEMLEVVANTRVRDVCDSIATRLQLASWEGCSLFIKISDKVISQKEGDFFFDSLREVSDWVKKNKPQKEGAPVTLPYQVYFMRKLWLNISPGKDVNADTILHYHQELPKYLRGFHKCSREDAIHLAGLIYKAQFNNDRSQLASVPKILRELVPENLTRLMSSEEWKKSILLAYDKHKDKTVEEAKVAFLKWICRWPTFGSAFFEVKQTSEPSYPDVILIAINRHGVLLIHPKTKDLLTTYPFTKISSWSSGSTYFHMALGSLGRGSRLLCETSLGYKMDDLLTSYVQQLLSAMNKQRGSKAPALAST
# UniProt Q9NRD1: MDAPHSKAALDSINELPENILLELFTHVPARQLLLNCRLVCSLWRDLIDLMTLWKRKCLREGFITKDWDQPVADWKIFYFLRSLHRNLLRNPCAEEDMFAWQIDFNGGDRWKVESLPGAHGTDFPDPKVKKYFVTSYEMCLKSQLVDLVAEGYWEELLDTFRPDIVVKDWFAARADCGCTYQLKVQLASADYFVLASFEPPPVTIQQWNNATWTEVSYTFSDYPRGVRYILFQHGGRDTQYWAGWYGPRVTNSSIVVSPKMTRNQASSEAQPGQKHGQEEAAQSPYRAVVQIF
# UniProt Q8N0W3: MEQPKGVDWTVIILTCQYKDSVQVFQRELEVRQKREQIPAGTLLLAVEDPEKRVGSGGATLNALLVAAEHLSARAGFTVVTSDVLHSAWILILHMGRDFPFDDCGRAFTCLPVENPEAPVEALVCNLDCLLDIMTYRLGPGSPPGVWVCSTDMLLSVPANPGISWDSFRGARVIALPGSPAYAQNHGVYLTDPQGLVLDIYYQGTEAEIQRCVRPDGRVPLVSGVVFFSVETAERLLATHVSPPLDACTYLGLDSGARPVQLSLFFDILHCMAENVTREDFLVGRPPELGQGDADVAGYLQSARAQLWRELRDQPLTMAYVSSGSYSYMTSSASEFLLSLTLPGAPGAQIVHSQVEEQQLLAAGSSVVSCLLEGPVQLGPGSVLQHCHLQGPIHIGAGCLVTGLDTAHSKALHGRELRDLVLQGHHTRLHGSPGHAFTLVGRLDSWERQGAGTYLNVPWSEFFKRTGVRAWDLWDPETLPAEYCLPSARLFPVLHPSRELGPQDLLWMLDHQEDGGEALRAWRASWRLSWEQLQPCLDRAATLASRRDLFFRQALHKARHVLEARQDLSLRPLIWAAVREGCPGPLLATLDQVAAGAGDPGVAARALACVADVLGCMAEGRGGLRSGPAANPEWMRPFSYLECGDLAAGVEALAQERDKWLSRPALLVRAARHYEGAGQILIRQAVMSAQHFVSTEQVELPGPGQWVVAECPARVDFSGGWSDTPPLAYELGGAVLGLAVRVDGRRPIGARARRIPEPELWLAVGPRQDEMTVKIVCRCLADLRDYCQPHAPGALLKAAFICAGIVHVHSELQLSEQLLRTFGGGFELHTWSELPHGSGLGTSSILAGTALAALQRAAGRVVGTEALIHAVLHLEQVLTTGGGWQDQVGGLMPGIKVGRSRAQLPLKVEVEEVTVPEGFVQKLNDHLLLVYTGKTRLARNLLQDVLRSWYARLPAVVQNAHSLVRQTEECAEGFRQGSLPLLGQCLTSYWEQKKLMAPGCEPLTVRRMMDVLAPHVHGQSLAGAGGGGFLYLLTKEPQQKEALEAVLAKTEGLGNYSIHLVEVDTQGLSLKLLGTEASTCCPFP
# UniProt Q15762: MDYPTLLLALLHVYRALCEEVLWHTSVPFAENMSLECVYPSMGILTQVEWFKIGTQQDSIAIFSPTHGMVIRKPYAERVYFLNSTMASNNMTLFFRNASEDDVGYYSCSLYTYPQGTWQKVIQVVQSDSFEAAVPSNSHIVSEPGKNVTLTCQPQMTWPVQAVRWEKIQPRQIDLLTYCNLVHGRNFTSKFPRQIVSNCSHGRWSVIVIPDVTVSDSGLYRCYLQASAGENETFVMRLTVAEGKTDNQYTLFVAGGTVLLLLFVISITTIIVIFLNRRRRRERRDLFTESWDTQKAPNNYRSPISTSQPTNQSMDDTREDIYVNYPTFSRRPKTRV
# UniProt Q5VW38: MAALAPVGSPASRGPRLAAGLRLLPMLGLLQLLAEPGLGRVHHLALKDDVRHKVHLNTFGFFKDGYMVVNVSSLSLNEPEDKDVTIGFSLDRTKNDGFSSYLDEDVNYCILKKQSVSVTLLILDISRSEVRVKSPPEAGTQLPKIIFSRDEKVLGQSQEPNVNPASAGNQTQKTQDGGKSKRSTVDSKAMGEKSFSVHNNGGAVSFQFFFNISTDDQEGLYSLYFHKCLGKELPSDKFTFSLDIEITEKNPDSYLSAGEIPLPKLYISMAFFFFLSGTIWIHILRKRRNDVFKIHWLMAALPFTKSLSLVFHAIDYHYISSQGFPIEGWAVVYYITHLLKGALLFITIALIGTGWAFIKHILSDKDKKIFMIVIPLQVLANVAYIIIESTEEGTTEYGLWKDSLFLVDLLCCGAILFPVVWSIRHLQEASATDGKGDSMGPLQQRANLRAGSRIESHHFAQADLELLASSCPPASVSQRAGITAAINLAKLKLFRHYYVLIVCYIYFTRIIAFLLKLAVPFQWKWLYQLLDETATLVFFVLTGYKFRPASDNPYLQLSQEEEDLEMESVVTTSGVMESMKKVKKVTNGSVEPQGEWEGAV
# UniProt O14950, whole entry, looked up: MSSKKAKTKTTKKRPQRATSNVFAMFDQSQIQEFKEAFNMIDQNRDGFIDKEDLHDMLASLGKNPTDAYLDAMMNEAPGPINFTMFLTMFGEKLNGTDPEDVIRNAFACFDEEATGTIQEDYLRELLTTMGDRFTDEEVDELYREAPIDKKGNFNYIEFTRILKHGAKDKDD
# UniProt Q9GZP9: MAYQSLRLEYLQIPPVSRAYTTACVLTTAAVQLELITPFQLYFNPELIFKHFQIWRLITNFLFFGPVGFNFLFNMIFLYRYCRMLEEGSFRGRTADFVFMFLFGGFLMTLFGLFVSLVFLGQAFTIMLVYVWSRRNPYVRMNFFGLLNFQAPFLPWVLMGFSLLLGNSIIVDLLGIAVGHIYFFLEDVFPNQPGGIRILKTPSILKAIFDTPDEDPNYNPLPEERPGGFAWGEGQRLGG
# UniProt O75153: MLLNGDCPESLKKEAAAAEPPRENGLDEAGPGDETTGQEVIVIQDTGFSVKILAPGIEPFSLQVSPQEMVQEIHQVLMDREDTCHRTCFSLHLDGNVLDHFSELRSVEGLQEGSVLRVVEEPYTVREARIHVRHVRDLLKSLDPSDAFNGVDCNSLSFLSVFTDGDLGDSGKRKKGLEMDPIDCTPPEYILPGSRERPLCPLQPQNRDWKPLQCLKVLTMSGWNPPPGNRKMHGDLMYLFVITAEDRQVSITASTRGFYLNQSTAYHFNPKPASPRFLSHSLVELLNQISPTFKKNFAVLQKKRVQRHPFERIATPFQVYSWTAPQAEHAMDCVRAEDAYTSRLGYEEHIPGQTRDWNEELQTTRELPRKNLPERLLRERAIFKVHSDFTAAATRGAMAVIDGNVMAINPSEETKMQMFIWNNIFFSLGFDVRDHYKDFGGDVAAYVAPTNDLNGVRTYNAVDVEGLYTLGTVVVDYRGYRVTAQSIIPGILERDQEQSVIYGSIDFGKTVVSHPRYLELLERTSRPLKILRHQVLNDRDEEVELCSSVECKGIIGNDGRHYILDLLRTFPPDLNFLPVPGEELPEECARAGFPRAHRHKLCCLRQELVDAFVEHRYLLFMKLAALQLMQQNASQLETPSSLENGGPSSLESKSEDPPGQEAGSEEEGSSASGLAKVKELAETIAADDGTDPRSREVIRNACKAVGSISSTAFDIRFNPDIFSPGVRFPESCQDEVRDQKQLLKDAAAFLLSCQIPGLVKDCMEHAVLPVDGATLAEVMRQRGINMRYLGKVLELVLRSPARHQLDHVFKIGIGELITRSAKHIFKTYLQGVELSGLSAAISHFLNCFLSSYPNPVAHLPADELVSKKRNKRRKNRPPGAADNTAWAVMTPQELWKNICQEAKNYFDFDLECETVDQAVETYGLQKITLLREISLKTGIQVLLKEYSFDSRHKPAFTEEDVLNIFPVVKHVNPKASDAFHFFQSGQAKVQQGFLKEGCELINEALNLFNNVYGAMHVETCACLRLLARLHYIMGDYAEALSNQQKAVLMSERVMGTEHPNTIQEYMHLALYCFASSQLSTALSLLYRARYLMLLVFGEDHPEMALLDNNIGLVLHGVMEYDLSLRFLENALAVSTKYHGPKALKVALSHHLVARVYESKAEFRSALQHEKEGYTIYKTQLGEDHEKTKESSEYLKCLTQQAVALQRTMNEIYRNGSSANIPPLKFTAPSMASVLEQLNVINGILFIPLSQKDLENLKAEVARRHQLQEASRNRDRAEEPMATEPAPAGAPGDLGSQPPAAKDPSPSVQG
# ± gives the standard deviation of the averaged measurements. The entries are a selection whose mix differs from that of the whole data set.
# Compound: Nc1ncnc2c1ncn2[C@@H]1O[C@H](COP(=O)(O)OP(=O)(O)NP(=O)(O)O)[C@@H](O)[C@H]1O [adenylyl imidodiphosphate]
# Assay: NP40-soluble protein abundance relative to vehicle (solubility fold change) (ratio); higher = more soluble protein in presence of AMP-PNP
# Outline: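 Data come from three independent experiments in which Dounce-homogenised Jurkat crude lysate was treated at eight concentrations from 0.1 to 10 mM. Treatment ran 10 min at room temperature and then 3 min at 37 °C, after which 0.8% NP40 and benzonase were added for 60 min at 4 °C before ultracentrifugation. The supernatant underwent TMT labelling and LC-MS/MS, and vsn-normalised intensities were expressed as fold change against the detergent-processed vehicle in each replicate.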
Target,NP40-soluble protein abundance (concentration: 1mM),NP40-soluble protein abundance (concentration: 2mM),NP40-soluble protein abundance (concentration: 4mM),NP40-soluble protein abundance (concentration: 6mM),NP40-soluble protein abundance (concentration: 8mM),NP40-soluble protein abundance (concentration: 10mM)
H7BXF5 and related entries (UniProt Q9H0E3),1.05 ± 0.041,1.09 ± 0.035,1.02 ± 0.03,1.03 ± 0.039,0.993 ± 0.016,1.05 ± 0.057
H7C1N3 and related entries (UniProt O15155),0.965 ± 0.055,0.977 ± 0.036,0.951 ± 0.022,0.975 ± 0.036,0.995 ± 0.063,0.955 ± 0.053
J3KTL2 and related entries (UniProt Q07955),1.08 ± 0.063,1.15 ± 0.11,1.05 ± 0.072,1.03 ± 0.049,0.958 ± 0.049,1.08 ± 0.14
I6L8B7 and related entries (UniProt Q01469),1.04 ± 0.047,1.02 ± 0.011,1.02 ± 0.011,1.11 ± 0.07,1.1 ± 0.092,1.09 ± 0.079
H0YEU4 and related entries (UniProt Q03164),1.05 ± 0.04,1.11 ± 0.037,1.12 ± 0.013,1.12 ± 0.029,1.15 ± 0.045,1.22 ± 0.092
H7C4C8 and related entries (UniProt P50990),0.972 ± 0.057,0.964 ± 0.027,0.929 ± 0.069,0.935 ± 0.086,0.912 ± 0.091,0.931 ± 0.13
H0YAR2 and related entries (UniProt P11940),1.01 ± 0.02,1.03 ± 0.052,0.998 ± 0.046,1.04 ± 0.035,1.01 ± 0.021,1.03 ± 0.021
H3BSD9 and related entries (UniProt Q6PIF6),0.992 ± 0.033,0.921 ± 0.091,1 ± 0.046,0.945 ± 0.029,0.978 ± 0.011,0.931 ± 0.045
H7C1I0 and related entries (UniProt Q96K37),1.02 ± 0.041,1.03 ± 0.017,1.02 ± 0.022,1.02 ± 0.039,1.05 ± 0.054,1.07 ± 0.056
G5E9C8 and related entries (UniProt Q07889),1.01 ± 0.024,0.9882 ± 0.0016,0.9614 ± 0.0068,0.939 ± 0.013,0.971 ± 0.042,0.96872 ± 0.00068
I3L2J8 and related entries (UniProt Q9UPN4),0.999 ± 0.013,1.02 ± 0.033,1.03 ± 0.015,1.01 ± 0.023,1.02 ± 0.048,1.01 ± 0.056
J3KQ72 and related entries (UniProt Q9NRD1),0.96 ± 0.027,0.988 ± 0.052,0.9952 ± 0.0094,0.9848 ± 0.0095,0.9629 ± 0.0083,0.955 ± 0.028
H0Y7P7 and related entries (UniProt Q9UG56),0.985 ± 0.023,0.961 ± 0.025,0.985 ± 0.056,0.986 ± 0.011,0.983 ± 0.025,1.01 ± 0.016
J3KSP6 and related entries (UniProt Q8N0W3),0.997 ± 0.028,0.966 ± 0.015,0.996 ± 0.026,0.959 ± 0.028,0.986 ± 0.02,0.943 ± 0.021
H0Y398 and related entries (UniProt Q9H8U3),0.988 ± 0.01,1.04 ± 0.039,0.993 ± 0.035,1.01 ± 0.02,1.03 ± 0.025,1.04 ± 0.013
H7C285 and related entries (UniProt O95858),0.97 ± 0.044,0.969 ± 0.018,0.9717 ± 0.0056,0.998 ± 0.032,0.983 ± 0.033,0.963 ± 0.021
J3QR77 and related entries (UniProt Q15762),0.967 ± 0.015,0.976 ± 0.016,0.9985 ± 0.0029,0.974 ± 0.053,1.01 ± 0.019,0.989 ± 0.014
H0YKS8 and related entries (UniProt Q08431),1.0241 ± 0.0004,0.981 ± 0.033,1.038 ± 0.0015,1.02 ± 0.028,0.994 ± 0.034,1.02 ± 0.077
G5E994 and related entries (UniProt Q5VW38),1.026 ± 0.0089,1.01 ± 0.018,0.976 ± 0.02,0.983 ± 0.024,1.01 ± 0.021,1.018 ± 0.0091
J3QRS3 and related entries (UniProt P19105+O14950+J3QRS3),1.07 ± 0.044,1.13 ± 0.059,1.03 ± 0.061,1.01 ± 0.044,0.965 ± 0.044,0.973 ± 0.027
H3BRL0 and related entries (UniProt Q9BXC9),0.991 ± 0.028,0.98 ± 0.033,0.9819 ± 0.0082,0.966 ± 0.01,0.955 ± 0.024,0.949 ± 0.037
J3KTE4 and related entries (UniProt P84098),1.01 ± 0.069,1.03 ± 0.093,1 ± 0.065,0.966 ± 0.07,0.902 ± 0.13,1.07 ± 0.015
K7EIU8 and related entries (UniProt Q13485),0.986 ± 0.065,0.936 ± 0.062,0.99 ± 0.091,1.04 ± 0.084,1.08 ± 0.08,1.03 ± 0.093
H0YNU5 and related entries (UniProt P54132),1.02 ± 0.033,1.02 ± 0.048,1.01 ± 0.038,1.06 ± 0.028,1.05 ± 0.045,1.08 ± 0.058
H0Y612 and related entries (UniProt Q9UPN9),1.01 ± 0.027,1.04 ± 0.041,1.04 ± 0.029,1.062 ± 0.0097,1.02 ± 0.014,1.05 ± 0.02
I3L1T3 and related entries (UniProt Q9GZP9),1.01 ± 0.029,0.939 ± 0.083,0.995 ± 0.026,0.985 ± 0.012,0.988 ± 0.018,0.949 ± 0.04
H0YN33 and related entries (UniProt Q9BW66),1.11 ± 0.034,1.13 ± 0.044,1.12 ± 0.018,1.17 ± 0.027,1.21 ± 0.059,1.22 ± 0.062
J3KR97 and related entries (UniProt Q9BTW9),0.933 ± 0.02,0.869 ± 0.099,0.945 ± 0.029,0.957 ± 0.077,0.984 ± 0.035,0.941 ± 0.016
J3KNF8 and related entries (UniProt O43169),1.15 ± 0.069,1.34 ± 0.33,1.1 ± 0.049,1.08 ± 0.047,1.03 ± 0.08,1.05 ± 0.054
I3L2B0 and related entries (UniProt O75153),1 ± 0.024,0.963 ± 0.028,0.977 ± 0.019,0.951 ± 0.013,0.959 ± 0.031,0.949 ± 0.014

# Looked up above.
# For NP40-soluble protein abundance (concentration: 10mM), H0YKS8 and related entries (UniProt Q08431) has 1.02 ± 0.077
# For NP40-soluble protein abundance (concentration: 2mM), H0Y398 and related entries (UniProt Q9H8U3) has 1.04 ± 0.039
